At least one compound was matched to its structure with a doubt left.
Assays:
Format in all cases: cell-based, murine
3T3-L1 adipocytes = test: Glucocorticoid (dexamethasone)-induced lipolysis in 3T3-L1 adipocytes; details: cultured adipocytes
3T3-L1 cells [1] = test: Adipogenic marker gene expression (AdipoQ, Fabp4, Pparγ) in differentiating 3T3-L1 cells; details: 2 μM
3T3-L1 cells [2] = test: Lipid accumulation (Oil Red O) in differentiating 3T3-L1 cells; details: 2 μM, positive control
Description: Cells were then either fixed and stained with Oil Red O (4 days post-differentiation) (panel A), or harvested (3 days post differentiation) for RNA isolation and gene expression analysis of adiponectin (AdipoQ), fatty acid binding protein 4 (Fabp4), or Ppary (panels B-D). All treatments compared to their respective DMSO controls. The Effects of SCO and ROSI were analyzed by t-test, while the effects of individual test compounds were analyzed by one-way ANOVA. *[…], **P<0.01, ***P<0.001, ****P<0.0001 vs DMSO controls.
Cell Culture and Treatments. 3T3-L1 preadipocytes (murine) were cultured as previously described,^3 and induced to differentiate two days after reaching confluence. For experiments using mature adipocytes, cells were induced with a standard methylxanthine-dexamethasone-insulin (MDI) cocktail, which contains 0.5 mM isobutylmethylxanthine (IBMX), 1 μM dexamethasone (DEX), and 1.72 μM insulin in high-glucose Dulbecco's Modified Eagle Medium (DMEM) supplemented with 10% fetal bovine serum (FBS). IBMX, DEX, insulin, and DMEM were obtained from Sigma-Aldrich (St. Louis, Mo.), and FBS from Hyclone (GE Healthcare Life Sciences, Logan, Utah). For differentiation experiments, cells were induced with half-strength MDI cocktail containing. […]
Lipid Accumulation Assay. […] The ORO was then eluted in isopropyl alcohol, and absorbance of eluates was measured at 520 nm for quantitation.

| SMILES | glucocorticoid-induced lipolysis, compared with GR antagonist RU486 (3T3-L1 adipocytes) | activity for Fabp4 expression (3T3-L1 cells [1]) | lipid accumulation (Oil Red O staining) (3T3-L1 cells [2]) |
| --- | --- | --- | --- |
| CC#C[C@]1(O)CC[C@H]2[C@@H]3CCC4=CC(=O)CCC4=C3[C@@H](c3ccc(N(C)C)cc3)C[C@@]21C [RU486] | attenuated lipolysis to the same extent as RU486 |  |  |
| CN(CCOc1ccc(CC2SC(=O)NC2=O)cc1)c1ccccn1 (stereo not drawn) [rosiglitazone] |  | higher activity for Fabp4 than any A. scoparia compounds or SCO | enhanced lipid accumulation |

Reference: patent US20230129745A1, “COMPOUNDS, COMPOSITIONS, AND METHODS TO TREAT METABOLIC DISEASE” (Board of Supervisors of Louisiana State University and …, priority 2020, published 2023)
